Laboratory results: patent publication US10080757B2 (WISCONSIN ALUMNI RESEARCH FOUNDATION, priority 2016, dated 2018)
Some entries share one result that the patent states for a list of compounds. Some compounds share one range, which may span the group rather than tell each member.

By UniProt entry, the sequences of proteins in these tests, tags left out. Where a name states a change or a piece, a line headed by the entry shows the natural chain unless it says otherwise.
UniProt P9WIQ1: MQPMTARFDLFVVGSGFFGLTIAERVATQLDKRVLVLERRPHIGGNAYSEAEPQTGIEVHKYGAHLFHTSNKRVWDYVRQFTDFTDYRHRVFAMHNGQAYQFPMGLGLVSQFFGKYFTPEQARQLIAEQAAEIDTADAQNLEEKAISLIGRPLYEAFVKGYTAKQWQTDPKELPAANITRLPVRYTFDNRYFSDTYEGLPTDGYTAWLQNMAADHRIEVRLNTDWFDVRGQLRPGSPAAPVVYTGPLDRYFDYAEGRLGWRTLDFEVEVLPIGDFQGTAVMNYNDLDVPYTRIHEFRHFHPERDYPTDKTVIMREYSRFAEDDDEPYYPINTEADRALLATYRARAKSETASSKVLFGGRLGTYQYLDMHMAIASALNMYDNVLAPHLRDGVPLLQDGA

Target: T1, recombinant MtbUGM (Mycobacterium tuberculosis, UniProt P9WIQ1)
T1 construct: made in house
Type: biochemical
Settings: Table 2; standard deviation, n = 3

Question: `CS(=O)(=O)NC(=O)C(Cc1ccc(I)cc1)Nc1nc(-c2ccc(Cl)c(Cl)c2)cs1` (centres unmarked) [Compound 2, 2-((4-(3,4-dichlorophenyl)thiazol-2-yl)amino)-3-(4-iodophenyl)-N-(methylsulfonyl)propanamide] was tested. Which IC50 did it give?
Answer: 1 to 18 µM

Question: How did the IC50 turn out when `O=C(NS(=O)(=O)C(F)(F)F)C(Cc1ccc(I)cc1)Nc1nc(-c2ccc(Cl)c(Cl)c2)cs1` (centres unmarked) [Compound 3, 2-((4-(3,4-dichlorophenyl)thiazol-2-yl)amino)-3-(4-iodophenyl)-N-((trifluoromethyl)sulfonyl)propanamide] was run?
Answer: 1 to 18 µM

Question: How did the IC50 turn out when `O=C(NS(=O)(=O)c1ccccc1)C(Cc1ccc(I)cc1)Nc1nc(-c2ccc(Cl)c(Cl)c2)cs1` (centres unmarked) [Compound 4, 2-((4-(3,4-dichlorophenyl)thiazol-2-yl)amino)-3-(4-iodophenyl)-N-(phenylsulfonyl)propanamide] was run?
Answer: 1 to 18 µM

Question: How did the IC50 turn out when `O=C(NS(=O)(=O)c1ccc([N+](=O)[O-])cc1)C(Cc1ccc(I)cc1)Nc1nc(-c2ccc(Cl)c(Cl)c2)cs1` (centres unmarked) [Compound 5, 2-((4-(3,4-dichlorophenyl)thiazol-2-yl)amino)-3-(4-iodophenyl)-N-((4-nitrophenyl)sulfonyl)propanamide] was run?
Answer: 1 to 18 µM

Question: `COc1ccc(S(=O)(=O)NC(=O)C(Cc2ccc(I)cc2)Nc2nc(-c3ccc(Cl)c(Cl)c3)cs2)cc1` (centres unmarked) [Compound 6, 2-((4-(3,4-dichlorophenyl)thiazol-2-yl)amino)-3-(4-iodophenyl)-N-((4-methoxyphenyl)sulfonyl)propanamide] was tested. Which IC50 did it give?
Answer: 1 to 18 µM

Question: `Cc1ccc(S(=O)(=O)NC(=O)C(Cc2ccc(I)cc2)Nc2nc(-c3ccc(Cl)c(Cl)c3)cs2)cc1` (centres unmarked) [Compound 7, 2-((4-(3,4-dichlorophenyl)thiazol-2-yl)amino)-3-(4-iodophenyl)-N-tosylpropanamide] was tested. Which IC50 did it give?
Answer: 1 to 18 µM

Question: `O=C(NS(=O)(=O)c1ccc(Cl)cc1)C(Cc1ccc(I)cc1)Nc1nc(-c2ccc(Cl)c(Cl)c2)cs1` (centres unmarked) [Compound 8, N-((4-chlorophenyl)sulfonyl)-2-((4-(3,4-dichlorophenyl)thiazol-2-yl)amino)-3-(4-iodophenyl)propanamide] was tested. Which IC50 did it give?
Answer: 1 to 18 µM

Question: How did the IC50 turn out when `O=C(NS(=O)(=O)c1ccccc1[N+](=O)[O-])C(Cc1ccc(I)cc1)Nc1nc(-c2ccc(Cl)c(Cl)c2)cs1` (centres unmarked) [Compound 9, 2-((4-(3,4-dichlorophenyl)thiazol-2-yl)amino)-3-(4-iodophenyl)-N-((2-nitrophenyl)sulfonyl)propanamide] was run?
Answer: 1 to 18 µM
